Laboratory results taken from the supplement of paper PMC10849652.
This is one part of the list.

Chains of the proteins cited; added tags and fusions are not shown. Lines headed by an entry give the natural chain unless they say otherwise; changes in a name come on top.
UniProt Q9BYG3: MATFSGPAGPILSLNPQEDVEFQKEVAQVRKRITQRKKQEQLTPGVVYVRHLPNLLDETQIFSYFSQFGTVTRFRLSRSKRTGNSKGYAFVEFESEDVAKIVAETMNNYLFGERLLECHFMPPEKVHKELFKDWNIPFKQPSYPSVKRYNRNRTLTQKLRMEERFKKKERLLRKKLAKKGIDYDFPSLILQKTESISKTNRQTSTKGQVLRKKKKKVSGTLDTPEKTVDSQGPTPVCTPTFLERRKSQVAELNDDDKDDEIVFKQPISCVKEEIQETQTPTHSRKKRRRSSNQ
UniProt O95182, whole entry, looked up: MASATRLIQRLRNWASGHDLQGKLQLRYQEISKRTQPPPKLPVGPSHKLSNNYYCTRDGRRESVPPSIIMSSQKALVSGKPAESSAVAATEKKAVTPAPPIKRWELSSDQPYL
UniProt Q9Y375: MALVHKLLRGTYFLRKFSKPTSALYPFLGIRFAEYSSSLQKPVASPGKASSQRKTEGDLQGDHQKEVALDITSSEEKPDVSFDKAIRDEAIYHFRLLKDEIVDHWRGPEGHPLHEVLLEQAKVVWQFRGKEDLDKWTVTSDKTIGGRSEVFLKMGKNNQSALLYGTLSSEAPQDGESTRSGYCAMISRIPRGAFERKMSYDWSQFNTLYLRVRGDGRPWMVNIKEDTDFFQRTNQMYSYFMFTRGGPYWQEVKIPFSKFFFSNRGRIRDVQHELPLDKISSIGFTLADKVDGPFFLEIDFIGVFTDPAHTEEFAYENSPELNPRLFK
UniProt P21359: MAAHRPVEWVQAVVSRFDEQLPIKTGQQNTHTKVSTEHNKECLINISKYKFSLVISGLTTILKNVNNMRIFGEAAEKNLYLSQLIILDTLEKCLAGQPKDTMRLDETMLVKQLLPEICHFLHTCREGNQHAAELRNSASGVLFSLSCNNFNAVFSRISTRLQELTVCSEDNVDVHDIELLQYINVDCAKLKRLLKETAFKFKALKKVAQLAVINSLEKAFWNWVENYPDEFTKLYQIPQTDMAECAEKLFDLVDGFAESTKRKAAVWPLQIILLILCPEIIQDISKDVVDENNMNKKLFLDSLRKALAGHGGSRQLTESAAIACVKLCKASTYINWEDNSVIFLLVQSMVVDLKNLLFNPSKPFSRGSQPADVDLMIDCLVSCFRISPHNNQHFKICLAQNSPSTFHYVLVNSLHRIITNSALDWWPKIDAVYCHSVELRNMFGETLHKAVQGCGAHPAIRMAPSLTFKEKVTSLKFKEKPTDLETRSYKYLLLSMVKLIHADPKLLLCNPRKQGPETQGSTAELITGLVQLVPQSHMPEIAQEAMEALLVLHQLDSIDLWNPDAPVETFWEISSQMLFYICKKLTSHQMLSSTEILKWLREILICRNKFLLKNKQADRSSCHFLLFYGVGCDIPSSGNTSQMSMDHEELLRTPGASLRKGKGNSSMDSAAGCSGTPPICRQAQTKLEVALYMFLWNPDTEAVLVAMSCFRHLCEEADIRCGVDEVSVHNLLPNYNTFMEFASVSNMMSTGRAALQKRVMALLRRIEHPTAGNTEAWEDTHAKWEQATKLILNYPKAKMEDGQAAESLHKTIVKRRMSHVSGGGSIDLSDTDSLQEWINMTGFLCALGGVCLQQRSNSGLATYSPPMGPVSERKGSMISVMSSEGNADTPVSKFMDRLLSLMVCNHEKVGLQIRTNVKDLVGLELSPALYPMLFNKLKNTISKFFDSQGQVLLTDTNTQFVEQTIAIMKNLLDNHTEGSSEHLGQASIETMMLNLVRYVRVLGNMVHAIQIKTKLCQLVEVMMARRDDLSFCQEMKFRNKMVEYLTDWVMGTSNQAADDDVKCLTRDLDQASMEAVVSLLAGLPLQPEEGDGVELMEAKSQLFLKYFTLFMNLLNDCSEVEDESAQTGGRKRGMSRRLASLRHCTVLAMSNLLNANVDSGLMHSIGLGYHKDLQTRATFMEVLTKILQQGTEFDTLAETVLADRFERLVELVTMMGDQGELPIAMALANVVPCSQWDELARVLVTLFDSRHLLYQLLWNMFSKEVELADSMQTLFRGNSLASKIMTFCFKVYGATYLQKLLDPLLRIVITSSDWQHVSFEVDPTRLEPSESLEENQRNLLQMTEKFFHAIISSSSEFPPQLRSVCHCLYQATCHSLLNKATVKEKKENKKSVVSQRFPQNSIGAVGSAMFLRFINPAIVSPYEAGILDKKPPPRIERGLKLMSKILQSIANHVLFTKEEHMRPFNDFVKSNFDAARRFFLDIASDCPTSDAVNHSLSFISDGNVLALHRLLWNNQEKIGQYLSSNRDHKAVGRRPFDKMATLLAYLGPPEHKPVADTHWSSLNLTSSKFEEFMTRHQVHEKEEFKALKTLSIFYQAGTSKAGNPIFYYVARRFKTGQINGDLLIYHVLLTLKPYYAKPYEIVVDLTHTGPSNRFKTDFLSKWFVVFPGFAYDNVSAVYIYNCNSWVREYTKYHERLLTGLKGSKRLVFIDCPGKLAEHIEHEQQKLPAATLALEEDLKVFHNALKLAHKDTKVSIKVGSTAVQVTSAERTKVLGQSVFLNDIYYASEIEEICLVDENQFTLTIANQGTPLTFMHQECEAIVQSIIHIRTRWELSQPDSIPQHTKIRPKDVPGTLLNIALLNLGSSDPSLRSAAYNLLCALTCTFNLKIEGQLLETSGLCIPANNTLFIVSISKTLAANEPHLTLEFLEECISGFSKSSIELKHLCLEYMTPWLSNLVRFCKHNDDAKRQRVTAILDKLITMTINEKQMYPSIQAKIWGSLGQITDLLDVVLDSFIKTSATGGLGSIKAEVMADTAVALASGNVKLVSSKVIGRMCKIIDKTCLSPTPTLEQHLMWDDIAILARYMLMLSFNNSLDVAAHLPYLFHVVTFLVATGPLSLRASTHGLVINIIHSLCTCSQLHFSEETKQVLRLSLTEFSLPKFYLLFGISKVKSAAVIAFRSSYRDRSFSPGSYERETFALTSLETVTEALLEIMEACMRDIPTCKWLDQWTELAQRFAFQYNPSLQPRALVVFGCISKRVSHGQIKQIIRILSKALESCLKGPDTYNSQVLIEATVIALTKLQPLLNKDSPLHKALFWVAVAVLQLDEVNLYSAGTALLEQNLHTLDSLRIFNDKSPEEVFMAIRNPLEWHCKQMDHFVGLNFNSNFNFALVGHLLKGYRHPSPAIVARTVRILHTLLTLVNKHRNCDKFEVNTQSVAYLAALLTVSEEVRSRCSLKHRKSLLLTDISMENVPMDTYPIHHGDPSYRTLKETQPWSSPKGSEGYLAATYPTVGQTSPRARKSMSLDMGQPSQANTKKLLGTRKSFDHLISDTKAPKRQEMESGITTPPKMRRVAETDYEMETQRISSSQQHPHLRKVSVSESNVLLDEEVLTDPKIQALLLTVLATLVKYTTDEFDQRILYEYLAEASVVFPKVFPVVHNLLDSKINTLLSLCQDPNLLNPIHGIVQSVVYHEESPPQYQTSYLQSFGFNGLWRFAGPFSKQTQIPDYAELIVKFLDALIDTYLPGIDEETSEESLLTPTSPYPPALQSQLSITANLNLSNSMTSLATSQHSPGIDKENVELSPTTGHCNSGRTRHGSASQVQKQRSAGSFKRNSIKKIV
UniProt Q15653: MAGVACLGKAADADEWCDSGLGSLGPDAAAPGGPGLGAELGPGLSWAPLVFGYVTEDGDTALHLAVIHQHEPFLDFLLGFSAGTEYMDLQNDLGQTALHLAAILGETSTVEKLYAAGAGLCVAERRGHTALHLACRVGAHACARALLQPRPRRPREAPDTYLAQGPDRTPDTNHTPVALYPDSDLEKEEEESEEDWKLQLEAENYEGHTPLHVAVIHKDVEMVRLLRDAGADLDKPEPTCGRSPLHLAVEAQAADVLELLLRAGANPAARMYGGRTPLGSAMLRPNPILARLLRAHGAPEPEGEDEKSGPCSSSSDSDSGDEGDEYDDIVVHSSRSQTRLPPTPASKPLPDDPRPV
UniProt Q8TD19: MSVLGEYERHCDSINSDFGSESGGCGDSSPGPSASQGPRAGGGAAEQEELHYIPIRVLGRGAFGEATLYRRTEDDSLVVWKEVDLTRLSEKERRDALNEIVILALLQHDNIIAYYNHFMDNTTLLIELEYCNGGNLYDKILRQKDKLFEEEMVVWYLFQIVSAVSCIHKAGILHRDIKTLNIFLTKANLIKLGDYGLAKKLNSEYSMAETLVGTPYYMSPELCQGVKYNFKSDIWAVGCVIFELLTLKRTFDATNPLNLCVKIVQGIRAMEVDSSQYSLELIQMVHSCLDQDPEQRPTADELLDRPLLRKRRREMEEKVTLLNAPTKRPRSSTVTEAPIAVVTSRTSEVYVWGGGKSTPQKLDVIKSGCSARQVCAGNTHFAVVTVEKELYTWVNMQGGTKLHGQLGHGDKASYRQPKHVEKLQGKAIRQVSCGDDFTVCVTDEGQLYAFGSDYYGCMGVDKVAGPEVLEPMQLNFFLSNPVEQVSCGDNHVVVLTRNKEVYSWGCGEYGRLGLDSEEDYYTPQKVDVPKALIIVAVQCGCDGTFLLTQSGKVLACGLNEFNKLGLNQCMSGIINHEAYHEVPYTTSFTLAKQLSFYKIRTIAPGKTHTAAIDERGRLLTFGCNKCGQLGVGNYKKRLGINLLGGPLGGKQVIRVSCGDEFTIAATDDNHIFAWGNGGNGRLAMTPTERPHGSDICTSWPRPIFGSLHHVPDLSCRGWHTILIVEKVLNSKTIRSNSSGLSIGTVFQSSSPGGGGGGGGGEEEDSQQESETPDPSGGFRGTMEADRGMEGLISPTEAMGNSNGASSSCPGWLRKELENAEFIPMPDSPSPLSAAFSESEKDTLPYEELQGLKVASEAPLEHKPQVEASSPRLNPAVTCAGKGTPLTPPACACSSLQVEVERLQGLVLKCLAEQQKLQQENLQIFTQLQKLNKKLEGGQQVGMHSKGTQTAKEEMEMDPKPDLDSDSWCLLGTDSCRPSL
UniProt Q9GZM8: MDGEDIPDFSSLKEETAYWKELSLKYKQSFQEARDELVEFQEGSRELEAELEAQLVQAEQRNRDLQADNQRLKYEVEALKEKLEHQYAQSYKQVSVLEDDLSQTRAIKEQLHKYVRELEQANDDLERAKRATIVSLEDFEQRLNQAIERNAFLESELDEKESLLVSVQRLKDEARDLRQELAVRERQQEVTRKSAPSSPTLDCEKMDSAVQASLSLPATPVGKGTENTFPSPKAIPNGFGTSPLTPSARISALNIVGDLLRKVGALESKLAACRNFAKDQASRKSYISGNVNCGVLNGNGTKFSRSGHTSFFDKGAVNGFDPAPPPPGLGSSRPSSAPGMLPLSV
UniProt P52849: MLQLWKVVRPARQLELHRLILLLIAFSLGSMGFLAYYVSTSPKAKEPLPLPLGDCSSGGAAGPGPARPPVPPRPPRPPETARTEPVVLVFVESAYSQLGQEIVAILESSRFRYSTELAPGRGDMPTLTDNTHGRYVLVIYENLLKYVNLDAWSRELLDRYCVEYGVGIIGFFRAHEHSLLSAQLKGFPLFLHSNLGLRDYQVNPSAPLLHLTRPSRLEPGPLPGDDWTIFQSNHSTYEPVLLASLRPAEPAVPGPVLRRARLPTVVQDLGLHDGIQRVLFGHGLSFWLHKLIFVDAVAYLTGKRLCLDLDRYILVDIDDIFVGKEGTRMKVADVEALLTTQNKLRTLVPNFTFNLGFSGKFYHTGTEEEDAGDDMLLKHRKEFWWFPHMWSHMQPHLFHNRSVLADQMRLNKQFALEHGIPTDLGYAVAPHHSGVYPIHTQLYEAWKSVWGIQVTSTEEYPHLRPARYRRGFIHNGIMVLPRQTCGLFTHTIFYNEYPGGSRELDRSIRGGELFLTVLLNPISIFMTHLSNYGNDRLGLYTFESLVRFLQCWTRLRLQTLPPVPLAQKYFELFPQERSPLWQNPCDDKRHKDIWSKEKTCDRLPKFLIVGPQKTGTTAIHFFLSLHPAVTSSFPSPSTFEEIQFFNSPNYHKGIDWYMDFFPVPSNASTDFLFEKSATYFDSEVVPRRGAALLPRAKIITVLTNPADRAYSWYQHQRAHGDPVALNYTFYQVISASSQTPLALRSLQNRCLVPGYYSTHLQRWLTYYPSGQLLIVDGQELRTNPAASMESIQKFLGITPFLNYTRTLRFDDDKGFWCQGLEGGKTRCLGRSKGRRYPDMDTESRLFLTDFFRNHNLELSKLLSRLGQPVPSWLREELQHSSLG
UniProt P49821, whole entry, looked up: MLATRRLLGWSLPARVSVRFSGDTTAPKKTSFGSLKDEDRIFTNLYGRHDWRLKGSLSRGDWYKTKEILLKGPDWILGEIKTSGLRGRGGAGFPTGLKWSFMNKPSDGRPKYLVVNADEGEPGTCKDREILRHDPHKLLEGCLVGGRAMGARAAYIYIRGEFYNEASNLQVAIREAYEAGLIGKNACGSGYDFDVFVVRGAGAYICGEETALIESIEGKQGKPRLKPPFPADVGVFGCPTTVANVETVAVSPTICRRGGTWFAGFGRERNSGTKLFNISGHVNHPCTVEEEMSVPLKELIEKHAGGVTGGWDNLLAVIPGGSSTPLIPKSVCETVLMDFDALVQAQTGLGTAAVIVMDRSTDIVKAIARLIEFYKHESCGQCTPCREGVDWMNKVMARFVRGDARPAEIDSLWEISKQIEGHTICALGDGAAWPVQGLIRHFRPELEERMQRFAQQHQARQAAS

What was measured:
Assay in all cases: log2 fold change, soluble protein after heating vs DMSO (PISA); higher = thermal stabilisation; K562 lysate, 10 uM; active = over 0.2 and 3.5 SD of the protein, either way, in both replicates (recomputed)
erlotinib = compound: C#Cc1cccc(Nc2ncnc3cc(OCCOC)c(OCCOC)cc23)c1 [erlotinib]
How it was run: (§1)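 K562 pellets were dounce-homogenised in PBS pH 7.4 with 1 mM MgCl2, and the crude extract at 1 mg/mL protein was treated with 10 μM compound for 30 min. Aliquots were heated for 3 min across 48°C-58°C, pooled, and brought to 0.5% NP-40 at 4°C; soluble protein was the supernatant after 21,000xg for 90 min. Soluble protein was quantified by TMTpro 16plex LC-MS/MS with channel sums equalised, and reported as log2 fold change in thermal stability against DMSO controls, with values from duplicates.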

[1] = compound: C/C(=N\NC(=O)C1=CC(=CC=C1)S(=O)(=O)N2CCOCC2)/C3=C(C=CC(=C3)Cl)O
How it was run: as §1

[2] = compound: C1=CC(=CC=C1C2=NC3=C(N2)C=C(C=C3)C(=O)N)OC4=CC=C(C=C4)Cl
How it was run: as §1

[3] = compound: C1=CC2=C(C=CC(=C2)/C=C\3/C(=O)NC(=NCC4=CC=CS4)S3)N=C1
How it was run: as §1

[4] = compound: C1=CC2=NC=CN=C2C=C1/C=C/3\C(=O)NC(=O)S3
How it was run: as §1

[5] = compound: C1=CC=C(C=C1)C2=NC(=C(N2)C3=CC=NC=C3)C4=CC(=C(C=C4)Cl)O
How it was run: as §1

[6] = compound: C1=CC=C2C(=C1)C3=NNC4=CC=CC(=C43)C2=O
How it was run: as §1

[7] = compound: C1CCN(C1)C(=O)NC2=CC=CC(=C2)NC3=NC=C(C(=N3)NCCC4=CN=CN4)Br
How it was run: as §1

[8] = compound: C1CN(CCC1(CC2=CC=C(C=C2)Cl)N)C3=NC=NC4=C3C=CN4
How it was run: as §1

IRAK-1-4 Inhibitor I = compound: C1COCCN1CCN2C3=CC=CC=C3N=C2NC(=O)C4=CC(=CC=C4)[N+](=O)[O-] [IRAK-1-4 Inhibitor I]
How it was run: as §1

ibrutinib = compound: C=CC(=O)N1CCC[C@@H](n2nc(-c3ccc(Oc4ccccc4)cc3)c3c(N)ncnc32)C1 [ibrutinib]
How it was run: as §1

[9] = compound: CC(=O)c1cnc2ccc(-c3cc(Cl)c(O)c(Cl)c3)nc2c1N[C@H]1CC[C@H](CN(C)C)CC1
How it was run: as §1

ralimetinib = compound: CC(C)(C)Cn1c(N)nc2ccc(-c3[nH]c(C(C)(C)C)nc3-c3ccc(F)cc3)nc21 [ralimetinib]
How it was run: as §1

[10] = compound: CC(C)(O)CC(=O)NCCn1ccc2ncnc(Nc3ccc(Oc4cccc(C(F)(F)F)c4)c(Cl)c3)c21
How it was run: as §1

[11] = compound: CC(C)C1=C2N=C(C=C(N2N=C1)NCC3=CC=CC=C3)NCCCCCCN
How it was run: as §1

[12] = compound: CC1=C(C(CC(=O)N1)C2=CC=C(C=C2)C(F)(F)F)C(=O)NC3=C(C=C4C(=C3)C=NN4)F
How it was run: as §1

[13] = compound: CC1=C(C2=C(C=C1)C(=O)C3=CC=CC=C3N2CCCN)C
How it was run: as §1

[14] = compound: CC1=C(C=C(C=C1)NC(=O)C2=CC(=CC=C2)C(C)(C)C#N)NC3=CC4=C(C=C3)N=CN(C4=O)C
How it was run: as §1

[15] = compound: CC1=C(C=C(C=C1)NC(=O)C2=CC(=CC=C2)N(C)C)NC(=O)C3=CC=C(C=C3)O
How it was run: as §1

[16] = compound: CC1=CC=C(C=C1)SC2=C3C=C(SC3=CN=C2)C(=O)N
How it was run: as §1

Measured: log2 fold change

NIFK (UniProt Q9BYG3)
inactive: erlotinib 0 | [1] -0.05 | [2] -0.01 | [3] -0.009 | [4] 0.032 | [5] 0.038 | [6] 0.01 | [7] -0.02 | [8] -0.005 | IRAK-1-4 Inhibitor I -0.042 | ibrutinib 0.02 | [9] -0.039 | ralimetinib 0.022 | [10] 0.002 | [11] -0.001 | [12] 0.016 | [13] -0.035 | [14] -0.005 | [15] 0.016 | [16] 0.032

NDUFAB1 (UniProt O14561)
inactive: erlotinib 0.059 | [1] 0.055 | [2] -0.101 | [3] 0.003 | [4] 0.126 | [5] -0.05 | [6] 0.019 | [7] 0.142 | [8] 0.106 | IRAK-1-4 Inhibitor I -0.011 | ibrutinib 0.026 | [9] -0.117 | ralimetinib -0.008 | [10] -0.036 | [11] 0.005 | [12] -0.013 | [13] 0.101 | [14] 0.139 | [15] -0.012 | [16] 0.087

NDUFA7 (UniProt O95182)
inactive: erlotinib -0.024 | [1] 0.016 | [2] -0.035 | [3] 0.011 | [4] 0.007 | [5] -0.022 | [6] 0.027 | [7] -0.035 | [8] -0.024 | IRAK-1-4 Inhibitor I 0.014 | ibrutinib -0.006 | [9] 0.015 | ralimetinib -0.005 | [10] -0.05 | [11] -0.025 | [12] -0.02 | [13] -0.01 | [14] -0.016 | [15] 0.024 | [16] 0.001

NFATC2 (UniProt Q13469)
inactive: erlotinib 0.002 | [1] 0.067 | [2] 0.014 | [3] 0.032 | [4] -0.016 | [5] 0.002 | [6] -0.144 | [7] -0.018 | [8] -0.049 | IRAK-1-4 Inhibitor I 0.033 | ibrutinib 0.012 | [9] 0.039 | ralimetinib -0.022 | [10] -0.061 | [11] 0.026 | [12] 0.004 | [13] -0.018 | [14] -0.026 | [15] 0.033 | [16] -0.031

NDUFAF1 (UniProt Q9Y375)
inactive: erlotinib -0.048 | [1] -0.012 | [2] -0.006 | [3] 0.01 | [4] 0.06 | [5] -0.002 | [6] -0.057 | [7] 0 | [8] 0.015 | IRAK-1-4 Inhibitor I -0.007 | ibrutinib -0.022 | [9] 0.002 | ralimetinib -0.008 | [10] -0.034 | [11] -0.036 | [12] 0.046 | [13] 0.018 | [14] 0.091 | [15] 0.023 | [16] -0.027

NFX1 (UniProt Q12986)
inactive: erlotinib 0.008 | [1] 0.003 | [2] 0.053 | [3] -0.004 | [4] 0.022 | [5] 0.015 | [6] -0.006 | [7] 0.13 | [8] 0.011 | IRAK-1-4 Inhibitor I -0.004 | ibrutinib -0.014 | [9] -0.021 | ralimetinib -0.059 | [10] 0.01 | [11] 0.068 | [12] 0.018 | [13] 0.109 | [14] -0.007 | [15] -0.007 | [16] -0.114

NF1 (UniProt P21359)
inactive: erlotinib 0.072 | [1] -0.031 | [2] -0.02 | [3] -0.056 | [4] -0.008 | [5] -0.003 | [6] -0.089 | [7] 0.017 | [8] 0 | IRAK-1-4 Inhibitor I 0.023 | ibrutinib 0.018 | [9] 0.02 | ralimetinib 0.07 | [10] -0.03 | [11] -0.009 | [12] 0.004 | [13] -0.02 | [14] 0.041 | [15] 0.007 | [16] -0.032

Retrieved one by one from the entries so far (two):
NFATC2 (UniProt Q13469)
inactive: erlotinib 0.002 | [1] 0.067 | [2] 0.014 | [3] 0.032 | [4] -0.016 | [5] 0.002 | [6] -0.144 | [7] -0.018 | [8] -0.049 | IRAK-1-4 Inhibitor I 0.033 | ibrutinib 0.012 | [9] 0.039 | ralimetinib -0.022 | [10] -0.061 | [11] 0.026 | [12] 0.004 | [13] -0.018 | [14] -0.026 | [15] 0.033 | [16] -0.031

NDUFAB1 (UniProt O14561)
inactive: erlotinib 0.059 | [1] 0.055 | [2] -0.101 | [3] 0.003 | [4] 0.126 | [5] -0.05 | [6] 0.019 | [7] 0.142 | [8] 0.106 | IRAK-1-4 Inhibitor I -0.011 | ibrutinib 0.026 | [9] -0.117 | ralimetinib -0.008 | [10] -0.036 | [11] 0.005 | [12] -0.013 | [13] 0.101 | [14] 0.139 | [15] -0.012 | [16] 0.087

(continued)

NFKBIB (UniProt Q15653)
inactive: erlotinib 0.113 | [1] -0.135 | [2] 0 | [3] 0.03 | [4] 0.025 | [5] -0.026 | [6] 0.06 | [7] 0.016 | [8] -0.008 | IRAK-1-4 Inhibitor I 0.052 | ibrutinib -0.034 | [9] -0.037 | ralimetinib 0.048 | [10] -0.008 | [11] -0.029 | [12] -0.012 | [13] 0 | [14] 0.033 | [15] 0.06 | [16] -0.037

NEK9 (UniProt Q8TD19)
inactive: erlotinib -0.008 | [1] 0.038 | [2] -0.028 | [3] -0.022 | [4] -0.021 | [5] -0.013 | [6] 0.154 | [7] 0.083 | [8] -0.009 | IRAK-1-4 Inhibitor I 0.142 | ibrutinib 0.005 | [9] 0.027 | ralimetinib 0.055 | [10] 0 | [11] 0.01 | [12] 0.006 | [13] -0.01 | [14] 0.012 | [15] 0.009 | [16] 0.016

NIBAN2 (UniProt Q96TA1)
inactive: erlotinib -0.016 | [1] 0.002 | [2] 0.051 | [3] 0.01 | [4] -0.007 | [5] 0 | [6] 0 | [7] 0.013 | [8] 0.011 | IRAK-1-4 Inhibitor I -0.013 | ibrutinib -0.024 | [9] 0.002 | ralimetinib -0.01 | [10] 0.004 | [11] -0.022 | [12] 0.011 | [13] 0.011 | [14] 0.01 | [15] 0.01 | [16] 0

NDEL1 isoform 2 (UniProt Q9GZM8)
inactive: erlotinib -0.058 | [1] 0 | [2] 0.024 | [3] 0.031 | [4] -0.086 | [5] -0.033 | [6] 0.024 | [7] -0.019 | [8] -0.006 | IRAK-1-4 Inhibitor I 0.001 | ibrutinib 0.005 | [9] -0.001 | ralimetinib -0.011 | [10] -0.042 | [11] -0.022 | [12] -0.013 | [13] -0.036 | [14] 0.043 | [15] 0.026 | [16] 0.016

NEDD1 isoform 3 (UniProt Q8NHV4)
inactive: erlotinib 0.055 | [1] -0.013 | [2] 0.057 | [3] 0.057 | [4] -0.022 | [5] 0.019 | [6] 0.005 | [7] 0.034 | [8] -0.05 | IRAK-1-4 Inhibitor I 0.048 | ibrutinib 0.016 | [9] -0.036 | ralimetinib -0.019 | [10] -0.01 | [11] -0.017 | [12] 0.017 | [13] 0.034 | [14] -0.03 | [15] 0.029 | [16] -0.005

NDST2 (UniProt P52849)
inactive: erlotinib 0.063 | [1] -0.019 | [2] -0.096 | [3] -0.048 | [4] -0.163 | [5] -0.073 | [6] -0.007 | [7] -0.239 | [8] 0.109 | IRAK-1-4 Inhibitor I -0.005 | ibrutinib 0.003 | [9] 0.055 | ralimetinib 0.025 | [10] 0.048 | [11] 0.016 | [12] 0.002 | [13] -0.026 | [14] -0.028 | [15] 0.019 | [16] -0.075

NEDD4L (UniProt Q96PU5)
inactive: erlotinib -0.043 | [1] 0.026 | [2] -0.022 | [3] 0.043 | [4] -0.005 | [5] -0.018 | [6] -0.024 | [7] 0.003 | [8] -0.014 | IRAK-1-4 Inhibitor I 0.004 | ibrutinib -0.081 | [9] -0.004 | ralimetinib -0.009 | [10] -0.002 | [11] 0.03 | [12] -0.022 | [13] 0.005 | [14] -0.022 | [15] -0.006 | [16] 0.009

NDUFV1 (UniProt P49821)
inactive: erlotinib 0 | [1] -0.017 | [2] -0.009 | [3] -0.026 | [4] -0.024 | [5] -0.01 | [6] -0.021 | [7] -0.027 | [8] 0.023 | IRAK-1-4 Inhibitor I 0.019 | ibrutinib 0.019 | [9] -0.024 | ralimetinib 0.003 | [10] -0.011 | [11] -0.014 | [12] 0.027 | [13] 0.01 | [14] 0.027 | [15] -0.004 | [16] 0.005

NDUFAF4 (UniProt Q9P032)
inactive: erlotinib -0.016 | [1] -0.038 | [2] -0.054 | [3] -0.022 | [4] -0.007 | [5] -0.017 | [6] -0.033 | [7] -0.003 | [8] -0.004 | IRAK-1-4 Inhibitor I 0.001 | ibrutinib 0.015 | [9] 0.013 | ralimetinib -0.02 | [10] -0.033 | [11] 0.016 | [12] -0.003 | [13] 0.005 | [14] -0.006 | [15] -0.008 | [16] -0.007
